{"source": "paper PMC1716192", "about": "“A Plant-Derived Morphinan as a Novel Lead Compound Active against Malaria Liver Stages” (PLoS Medicine, 2006)", "key": {"[1]": {"test_system": "P. yoelii (265 BY strain) hepatic stages", "experiment": "In vitro assay for P. yoelii liver stage inhibition in primary mouse hepatocytes", "type": "cell-based", "conditions": "TC50 on mouse primary hepatocytes versus IC50", "protocol": "(§1) P. yoelii (265 BY strain) and P. falciparum (NF 54 strain) sporozoites were obtained by dissection of infected Anopheles stephensi salivary glands. Primary mouse hepatocytes were isolated as previously described and seeded in eight-well Lab-Tek plastic chamber slides (VWR, Fontenay-sous-Bois, France) previously coated with rat-tail collagen I (BD Biosciences, Le Pont de Claix, France) at a density of 10^5 cells per well. Mouse hepatocytes were cultured at 37 °C in 5% CO2 in William's E medium supplemented with 10% fetal calf serum, 1% L-glutamine, 1% sodium pyruvate, 1% insulin-transferrin-selenium, 1% nonessential amino acids, and 1% penicillin-streptomycin (all from Invitrogen, Cergy-Pontoise, France), for 24 h before inoculation of P. yoelii sporozoites (10^5 per well). Human liver fragments were collected following informed consent provided from patients undergoing a partial hepatectomy. The collection and use of these tissues were undertaken in accordance with French Government ethical regulations. Primary human hepatocytes were isolated from the healthy parts of these liver biopsies as previously described. […] Parasites were quantified on the last day of incubation. For the in vitro timing experiments, tazopsine treatment of P. yoelii and P. falciparum cultures was undertaken for different periods during the cultivation: 0 h to 3 h, 3 h to 24 h, or 24 h to 48 h after P. yoelii sporozoite inoculation (quantification at 48 h), or 0 h to 2 d, or 3 d to 5 d after P. falciparum sporozoite inoculation (quantification at 5 d). […] Parasite numbers were counted under a fluorescence microscope with a 25× light microscope objective.\n(§2) IC50 and TC50 were calculated by nonlinear regression using four-parameter logistic curves on the SigmaPlot 10.0 software (http://www.systat.com). Each IC50 or TC50 is expressed as a mean between two independent experiments, followed by the standard error of the mean."}, "[2]": {"test_system": "P. falciparum (NF 54 strain) hepatic stages", "experiment": "In vitro assay for P. falciparum liver stage inhibition in primary human hepatocytes", "type": "cell-based", "conditions": "TC50 on human primary hepatocytes versus IC50", "protocol": "as §1, with “objective. […]” for “objective.”\nas §2"}}}
{"smiles": "COC1=C2[C@@H]3[C@H](O)c4ccc(OC)c(O)c4[C@]2(CCN3C2CCCC2)C[C@H](O)[C@@H]1O", "note": "[NCP-tazopsine, N-cyclopentyl-tazopsine]", "values": [{"measurement": "TI (therapeutic index)", "setting": "[1]", "value": 46}, {"measurement": "TI (therapeutic index)", "setting": "[2]", "value": 60}]}
{"smiles": "COc1cc(NC(C)CCCN)c2ncccc2c1", "note": "(stereo not drawn) [Primaquine, reference compound]", "values": [{"measurement": "TI (therapeutic index)", "setting": "[1]", "value": 110}, {"measurement": "TI (therapeutic index)", "setting": "[2]", "value": 81}]}
{"smiles": "COC1=C2[C@H]3NCC[C@]2(C[C@H](O)[C@@H]1O)c1c(ccc(OC)c1O)[C@H]3O", "note": "[Tazopsine, tazopsine]", "values": [{"measurement": "TI (therapeutic index)", "setting": "[1]", "value": 14}, {"measurement": "TI (therapeutic index)", "setting": "[2]", "value": 7}]}
